Test results: the supplement of paper PMC10849652
The other results are listed elsewhere or left out.

By UniProt entry, the sequences of proteins in these tests, tags left out. Where a name states a change or a piece, a line headed by the entry shows the natural chain unless it says otherwise.
UniProt Q92600, whole entry, looked up: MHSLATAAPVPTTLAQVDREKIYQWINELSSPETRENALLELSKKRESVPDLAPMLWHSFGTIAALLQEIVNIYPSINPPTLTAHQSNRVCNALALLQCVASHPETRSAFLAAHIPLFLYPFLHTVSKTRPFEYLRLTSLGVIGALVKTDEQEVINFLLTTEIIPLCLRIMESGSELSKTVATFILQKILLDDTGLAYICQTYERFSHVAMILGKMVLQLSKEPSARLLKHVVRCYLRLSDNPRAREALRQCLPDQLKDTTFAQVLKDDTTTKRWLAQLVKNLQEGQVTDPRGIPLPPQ
UniProt Q7Z7K0: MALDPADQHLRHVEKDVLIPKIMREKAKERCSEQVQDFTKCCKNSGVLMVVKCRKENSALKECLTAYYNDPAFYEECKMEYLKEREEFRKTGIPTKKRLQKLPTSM
UniProt P62633: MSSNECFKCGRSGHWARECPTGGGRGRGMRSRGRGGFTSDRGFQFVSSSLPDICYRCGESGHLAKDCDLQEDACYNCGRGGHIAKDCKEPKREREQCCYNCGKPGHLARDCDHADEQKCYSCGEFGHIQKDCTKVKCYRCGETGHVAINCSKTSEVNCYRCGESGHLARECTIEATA
UniProt P02452, whole entry, looked up: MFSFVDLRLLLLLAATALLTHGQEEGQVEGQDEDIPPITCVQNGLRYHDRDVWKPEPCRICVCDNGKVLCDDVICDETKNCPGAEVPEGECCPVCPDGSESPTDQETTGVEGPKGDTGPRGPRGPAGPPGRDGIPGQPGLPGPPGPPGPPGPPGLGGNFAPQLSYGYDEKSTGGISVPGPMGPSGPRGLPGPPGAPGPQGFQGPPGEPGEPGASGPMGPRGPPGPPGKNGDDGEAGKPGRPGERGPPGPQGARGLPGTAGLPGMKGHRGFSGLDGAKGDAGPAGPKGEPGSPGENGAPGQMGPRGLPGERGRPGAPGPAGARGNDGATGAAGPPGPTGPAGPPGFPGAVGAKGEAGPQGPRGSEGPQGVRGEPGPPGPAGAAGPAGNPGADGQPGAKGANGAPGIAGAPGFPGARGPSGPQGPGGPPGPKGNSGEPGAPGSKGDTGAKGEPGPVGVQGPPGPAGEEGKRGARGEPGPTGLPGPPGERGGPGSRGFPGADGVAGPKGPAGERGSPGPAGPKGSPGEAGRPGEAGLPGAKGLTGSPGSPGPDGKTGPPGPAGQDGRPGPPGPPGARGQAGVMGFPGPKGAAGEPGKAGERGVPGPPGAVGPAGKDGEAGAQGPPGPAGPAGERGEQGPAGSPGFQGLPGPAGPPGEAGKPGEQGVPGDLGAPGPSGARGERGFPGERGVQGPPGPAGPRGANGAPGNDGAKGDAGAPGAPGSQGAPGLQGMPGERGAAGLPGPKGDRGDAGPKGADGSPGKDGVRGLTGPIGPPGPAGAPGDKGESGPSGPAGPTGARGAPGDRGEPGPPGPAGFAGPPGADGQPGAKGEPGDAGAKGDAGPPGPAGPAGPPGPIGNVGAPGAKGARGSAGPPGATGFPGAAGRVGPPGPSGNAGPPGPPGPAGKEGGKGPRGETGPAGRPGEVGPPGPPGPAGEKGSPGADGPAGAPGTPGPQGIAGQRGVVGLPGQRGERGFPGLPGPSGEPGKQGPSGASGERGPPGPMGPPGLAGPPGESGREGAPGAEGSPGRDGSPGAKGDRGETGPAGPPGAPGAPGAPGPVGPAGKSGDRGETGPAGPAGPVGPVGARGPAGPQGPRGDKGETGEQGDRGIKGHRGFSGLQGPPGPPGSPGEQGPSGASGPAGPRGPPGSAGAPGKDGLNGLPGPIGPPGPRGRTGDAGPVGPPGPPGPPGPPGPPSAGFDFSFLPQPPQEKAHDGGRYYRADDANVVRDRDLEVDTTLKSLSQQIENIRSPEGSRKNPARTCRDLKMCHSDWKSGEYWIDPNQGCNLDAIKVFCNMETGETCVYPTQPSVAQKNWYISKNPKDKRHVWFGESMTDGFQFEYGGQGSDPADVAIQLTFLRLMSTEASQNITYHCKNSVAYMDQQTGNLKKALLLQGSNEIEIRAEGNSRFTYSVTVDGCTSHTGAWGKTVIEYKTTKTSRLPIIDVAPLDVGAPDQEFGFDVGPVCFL
UniProt O76031, whole entry, looked up: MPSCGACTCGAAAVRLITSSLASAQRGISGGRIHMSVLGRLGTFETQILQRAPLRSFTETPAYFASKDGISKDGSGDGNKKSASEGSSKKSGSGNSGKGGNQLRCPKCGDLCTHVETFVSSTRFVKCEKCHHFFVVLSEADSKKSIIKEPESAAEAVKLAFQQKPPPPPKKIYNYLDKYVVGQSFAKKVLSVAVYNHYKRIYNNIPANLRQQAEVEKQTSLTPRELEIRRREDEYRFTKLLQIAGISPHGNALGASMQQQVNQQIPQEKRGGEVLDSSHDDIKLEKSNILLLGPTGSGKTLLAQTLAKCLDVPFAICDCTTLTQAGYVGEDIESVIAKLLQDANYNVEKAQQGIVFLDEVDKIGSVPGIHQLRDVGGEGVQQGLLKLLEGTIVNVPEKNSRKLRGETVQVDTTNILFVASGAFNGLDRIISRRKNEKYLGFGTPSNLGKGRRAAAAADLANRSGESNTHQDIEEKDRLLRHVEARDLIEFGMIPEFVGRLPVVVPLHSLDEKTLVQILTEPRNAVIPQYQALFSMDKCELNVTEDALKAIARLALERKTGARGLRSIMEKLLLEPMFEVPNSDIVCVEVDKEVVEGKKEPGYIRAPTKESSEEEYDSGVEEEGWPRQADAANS
UniProt P51788: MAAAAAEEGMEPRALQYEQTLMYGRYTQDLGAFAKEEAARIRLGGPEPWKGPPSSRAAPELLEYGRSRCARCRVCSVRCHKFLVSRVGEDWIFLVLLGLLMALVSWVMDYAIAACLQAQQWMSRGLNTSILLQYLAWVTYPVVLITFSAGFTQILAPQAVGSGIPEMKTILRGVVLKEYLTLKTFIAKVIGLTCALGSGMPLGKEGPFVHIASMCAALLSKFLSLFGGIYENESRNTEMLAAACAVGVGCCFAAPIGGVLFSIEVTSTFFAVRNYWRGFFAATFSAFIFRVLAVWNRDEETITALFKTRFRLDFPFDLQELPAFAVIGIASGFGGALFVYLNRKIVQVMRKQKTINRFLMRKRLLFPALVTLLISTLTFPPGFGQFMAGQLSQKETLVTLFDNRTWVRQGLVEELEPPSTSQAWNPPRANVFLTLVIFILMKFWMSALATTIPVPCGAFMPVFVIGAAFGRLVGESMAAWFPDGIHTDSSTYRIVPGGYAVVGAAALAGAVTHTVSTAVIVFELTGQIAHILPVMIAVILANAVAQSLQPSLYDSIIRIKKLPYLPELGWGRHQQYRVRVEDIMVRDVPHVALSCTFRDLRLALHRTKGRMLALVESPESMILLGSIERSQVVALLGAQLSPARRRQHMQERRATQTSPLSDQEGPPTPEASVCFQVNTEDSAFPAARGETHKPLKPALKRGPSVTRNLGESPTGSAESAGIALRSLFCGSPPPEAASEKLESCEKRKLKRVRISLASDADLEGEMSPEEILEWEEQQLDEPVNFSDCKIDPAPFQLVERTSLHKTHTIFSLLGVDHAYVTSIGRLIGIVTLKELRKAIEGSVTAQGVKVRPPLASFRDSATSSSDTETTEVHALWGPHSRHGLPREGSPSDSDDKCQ
UniProt P51790: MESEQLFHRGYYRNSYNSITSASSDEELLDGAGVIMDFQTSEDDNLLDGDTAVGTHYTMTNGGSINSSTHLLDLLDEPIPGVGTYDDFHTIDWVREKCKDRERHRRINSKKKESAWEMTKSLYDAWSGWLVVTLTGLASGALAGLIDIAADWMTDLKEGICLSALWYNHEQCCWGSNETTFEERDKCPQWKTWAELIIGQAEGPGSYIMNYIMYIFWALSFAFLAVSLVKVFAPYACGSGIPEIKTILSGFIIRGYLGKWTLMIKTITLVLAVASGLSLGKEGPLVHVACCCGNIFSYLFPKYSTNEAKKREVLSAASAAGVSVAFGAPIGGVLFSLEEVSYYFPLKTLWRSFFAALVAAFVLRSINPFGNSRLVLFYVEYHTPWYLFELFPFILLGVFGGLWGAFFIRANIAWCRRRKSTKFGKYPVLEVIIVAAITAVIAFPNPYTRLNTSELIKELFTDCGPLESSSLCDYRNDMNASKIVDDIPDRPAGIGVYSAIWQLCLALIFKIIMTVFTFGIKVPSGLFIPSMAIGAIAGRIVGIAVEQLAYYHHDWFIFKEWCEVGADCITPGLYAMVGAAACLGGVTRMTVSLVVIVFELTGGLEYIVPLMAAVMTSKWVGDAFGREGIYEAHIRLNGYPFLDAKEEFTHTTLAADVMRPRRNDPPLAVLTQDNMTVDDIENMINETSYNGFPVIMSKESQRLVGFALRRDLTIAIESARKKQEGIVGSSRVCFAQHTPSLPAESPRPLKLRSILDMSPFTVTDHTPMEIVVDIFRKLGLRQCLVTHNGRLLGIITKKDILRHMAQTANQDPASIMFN
UniProt O75503: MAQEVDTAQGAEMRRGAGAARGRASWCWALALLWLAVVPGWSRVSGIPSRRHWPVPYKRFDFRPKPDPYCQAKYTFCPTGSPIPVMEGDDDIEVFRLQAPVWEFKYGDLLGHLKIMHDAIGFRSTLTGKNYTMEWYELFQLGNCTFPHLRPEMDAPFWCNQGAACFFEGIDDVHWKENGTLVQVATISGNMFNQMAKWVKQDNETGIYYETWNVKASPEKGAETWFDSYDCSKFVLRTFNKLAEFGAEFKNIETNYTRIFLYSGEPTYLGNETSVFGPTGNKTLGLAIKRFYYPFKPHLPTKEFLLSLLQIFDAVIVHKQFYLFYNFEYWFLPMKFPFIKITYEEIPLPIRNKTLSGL
UniProt Q8IZ52: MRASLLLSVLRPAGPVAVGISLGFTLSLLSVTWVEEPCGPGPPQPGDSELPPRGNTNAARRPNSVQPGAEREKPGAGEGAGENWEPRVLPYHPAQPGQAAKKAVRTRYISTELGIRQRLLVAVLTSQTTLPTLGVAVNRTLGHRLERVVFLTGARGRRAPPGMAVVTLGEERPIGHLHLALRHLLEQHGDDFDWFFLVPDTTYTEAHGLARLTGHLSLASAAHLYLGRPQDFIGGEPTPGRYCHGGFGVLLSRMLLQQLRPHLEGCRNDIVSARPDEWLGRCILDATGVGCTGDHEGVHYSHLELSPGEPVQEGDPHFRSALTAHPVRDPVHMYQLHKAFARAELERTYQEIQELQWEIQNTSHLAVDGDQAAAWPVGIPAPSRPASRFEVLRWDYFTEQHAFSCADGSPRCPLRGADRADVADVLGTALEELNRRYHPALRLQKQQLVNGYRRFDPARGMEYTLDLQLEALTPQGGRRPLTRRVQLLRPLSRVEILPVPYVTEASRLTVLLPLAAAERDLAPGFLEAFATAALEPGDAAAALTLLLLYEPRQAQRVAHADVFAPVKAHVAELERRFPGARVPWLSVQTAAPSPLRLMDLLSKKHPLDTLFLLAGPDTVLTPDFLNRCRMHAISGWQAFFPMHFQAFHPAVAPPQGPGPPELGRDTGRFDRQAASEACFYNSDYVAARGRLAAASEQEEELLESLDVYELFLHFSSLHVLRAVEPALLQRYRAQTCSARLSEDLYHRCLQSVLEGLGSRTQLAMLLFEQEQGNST
UniProt Q9NX76: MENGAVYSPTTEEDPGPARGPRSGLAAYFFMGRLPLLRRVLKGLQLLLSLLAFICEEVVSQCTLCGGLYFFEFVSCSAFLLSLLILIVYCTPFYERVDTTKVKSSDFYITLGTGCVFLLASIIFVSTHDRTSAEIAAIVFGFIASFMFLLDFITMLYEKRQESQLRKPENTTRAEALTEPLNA
UniProt P61024, whole entry, looked up: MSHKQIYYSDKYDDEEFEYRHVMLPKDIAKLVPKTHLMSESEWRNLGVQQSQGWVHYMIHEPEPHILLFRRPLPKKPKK
UniProt Q96KP4: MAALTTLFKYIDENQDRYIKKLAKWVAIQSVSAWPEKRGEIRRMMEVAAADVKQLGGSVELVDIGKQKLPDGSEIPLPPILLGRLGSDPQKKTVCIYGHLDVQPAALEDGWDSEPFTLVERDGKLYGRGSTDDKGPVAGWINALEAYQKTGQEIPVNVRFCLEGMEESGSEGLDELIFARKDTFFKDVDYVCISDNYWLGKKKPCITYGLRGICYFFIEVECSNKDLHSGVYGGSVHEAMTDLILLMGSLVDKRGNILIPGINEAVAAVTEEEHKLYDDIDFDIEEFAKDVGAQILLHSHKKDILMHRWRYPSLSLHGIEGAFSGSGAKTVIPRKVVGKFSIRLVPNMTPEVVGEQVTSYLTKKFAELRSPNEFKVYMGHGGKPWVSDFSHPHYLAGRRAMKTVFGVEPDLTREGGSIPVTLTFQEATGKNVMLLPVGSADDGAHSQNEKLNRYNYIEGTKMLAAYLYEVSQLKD
UniProt Q99439: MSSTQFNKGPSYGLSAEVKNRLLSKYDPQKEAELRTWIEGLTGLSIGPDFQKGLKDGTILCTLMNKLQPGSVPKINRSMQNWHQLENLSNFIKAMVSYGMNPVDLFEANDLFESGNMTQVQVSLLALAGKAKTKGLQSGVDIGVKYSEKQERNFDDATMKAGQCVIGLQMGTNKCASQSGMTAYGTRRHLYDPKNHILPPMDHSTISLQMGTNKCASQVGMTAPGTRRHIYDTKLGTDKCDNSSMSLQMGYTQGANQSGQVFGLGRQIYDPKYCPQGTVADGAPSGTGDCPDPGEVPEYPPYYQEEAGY

Key:
Test in all cases: log2 fold change, soluble protein after heating vs DMSO (PISA); higher = thermal stabilisation; K562 cells, 10 uM, 30 min; active = over 0.2 and 3.5 SD of the protein, either way, in both replicates (recomputed)
[1] = compound: CS(=O)(=O)c1ccc(-c2cnc(N)c(C(=O)Nc3ccccc3)n2)cc1
Method in brief: (§1)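 K562 cells at 2×10^6 cells/mL were given 10 μM compound for 30 min. Aliquots then went through 3 min of heating across 48°C-58°C, were pooled, and were extracted in PBS with 0.5% NP-40 at 4°C, and the supernatant after 21,000xg for 90 min was quantified by TMTpro 16plex LC-MS/MS with channel sums equalised. Thermal stability relative to control samples, from duplicates, is given as log2 fold change.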

[2] = compound: C[C@@H](Oc1cc(-c2cnn(C3CCNCC3)c2)cnc1N)c1c(Cl)ccc(F)c1Cl [crizotinib]
Method in brief: as §1

[3] = compound: C[C@@H]1COCCN1C2=NC(=NC(=C2)C3(CC3)S(=O)(=O)C)C4=C5C=CNC5=CC=C4
Method in brief: as §1

[4] = compound: C[C@H](C1=CC=C(C=C1)C(=O)NC2=C3C=CNC3=NC=C2)N
Method in brief: as §1

[5] = compound: C[C@H](Nc1ncnc2nc[nH]c12)c1cc2cccc(Cl)c2c(=O)n1-c1ccccc1 [duvelisib]
Method in brief: as §1

[6] = compound: Cc1cc(Nc2cc(CN3CCOCC3)c3nc(C)c(Cc4ccc(Cl)cc4F)n3n2)n[nH]1 [gandotinib]
Method in brief: as §1

[7] = compound: Cc1cc(Nc2cc(N3CCN(C)CC3)nc(Sc3ccc(NC(=O)C4CC4)cc3)n2)n[nH]1 [tozasertib]
Method in brief: as §1

[8] = compound: Cc1cc(SCc2sc(-c3ccc(C(F)(F)F)cc3)nc2C)ccc1OCC(=O)O
Method in brief: as §1

[9] = compound: Cc1ccc(-n2nc(C(C)(C)C)cc2NC(=O)Nc2ccc(OCCN3CCOCC3)c3ccccc23)cc1 [doramapimod]
Method in brief: as §1

[10] = compound: Cc1ccc(C(=O)N(CCCN)[C@@H](c2nc3cc(Cl)ccc3c(=O)n2Cc2ccccc2)C(C)C)cc1 [ispinesib]
Method in brief: as §1

Measured: log2 fold change

CNOT9 isoform 2 (UniProt Q92600)
inactive: [1] 0 | [2] 0.02 | [3] 0.01 | [4] 0.009 | [5] 0.009 | [6] -0.013 | [7] 0.051 | [8] 0.115 | [9] -0.029 | [10] -0.029

CMC1 (UniProt Q7Z7K0)
inactive: [1] 0.015 | [2] 0.045 | [3] -0.066 | [4] -0.057 | [5] -0.097 | [6] 0.06 | [7] -0.045 | [8] -0.17 | [9] -0.073 | [10] 0.036

CNBP isoform 6 (UniProt P62633)
inactive: [1] -0.008 | [2] 0.008 | [3] -0.119 | [4] -0.018 | [5] -0.049 | [6] 0.109 | [7] 0 | [8] -0.08 | [9] -0.018 | [10] -0.004

CHORDC1 (UniProt Q9UHD1)
inactive: [1] 0.037 | [2] -0.02 | [3] 0.063 | [4] -0.062 | [5] 0.01 | [6] -0.041 | [7] -0.009 | [8] 0.01 | [9] -0.02 | [10] 0.099

COL1A1 (UniProt P02452)
inactive: [1] 0.054 | [2] 0.161 | [3] -0.059 | [4] 0.461 | [5] 0.041 | [7] -0.121 | [8] -0.207 | [9] 0.112 | [10] 0.004

CIZ1 (UniProt Q9ULV3)
inactive: [1] -0.008 | [2] -0.097 | [3] 0.017 | [4] -0.079 | [6] -0.121 | [8] 0.016 | [9] 0.005 | [10] -0.015

CNOT8 (UniProt Q9UFF9)
inactive: [1] 0.064 | [2] -0.029 | [3] -0.086 | [4] 0.222 | [5] -0.1 | [7] -0.074 | [8] 0.174 | [9] -0.054 | [10] -0.07

COASY isoform 2 (UniProt Q13057)
inactive: [1] -0.052 | [2] -0.071 | [3] 0.133 | [4] -0.09 | [6] -0.058 | [8] 0.045 | [9] -0.063 | [10] -0.057

CNOT4 isoform 6 (UniProt O95628)
inactive: [1] 0.007 | [2] 0.031 | [3] 0.056 | [4] -0.076 | [6] -0.005 | [8] 0.014 | [9] -0.02 | [10] 0.066

CLPX (UniProt O76031)
active: [2] 0.291
inactive: [1] 0.061 | [3] 0.027 | [4] 0.004 | [6] 0.003 | [8] -0.05 | [9] -0.002 | [10] 0.018

CMTR1 (UniProt Q8N1G2)
inactive: [1] 0.02 | [2] 0.014 | [3] 0.011 | [4] 0.059 | [6] 0.025 | [8] 0.029 | [9] -0.036 | [10] -0.002

CKAP2 (UniProt Q8WWK9)
inactive: [1] -0.032 | [2] -0.347 | [3] -0.571 | [4] 0.452 | [5] -0.184 | [7] -0.173 | [8] 0.093 | [9] 0.142 | [10] -0.431

CLCN2 (UniProt P51788)
inactive: [1] 0.012 | [2] 0.009 | [3] 0.018 | [4] -0.039 | [5] 0.058 | [6] 0.086 | [8] -0.102 | [9] 0.059 | [10] -0.086

CKB (UniProt P12277)
inactive: [1] 0.059 | [2] -0.174 | [3] 0.077 | [4] 0.053 | [6] -0.109 | [8] 0.021 | [9] -0.009 | [10] -0.022

CLCN3 (UniProt P51790)
inactive: [1] -0.05 | [2] -0.191 | [3] 0.012 | [4] -0.003 | [6] -0.062 | [8] -0.006 | [9] -0.03
active: [10] -0.549

CLN5 (UniProt O75503)
inactive: [1] 0.136 | [2] -0.733 | [3] 0.06 | [4] 0.046 | [6] -0.077 | [8] 0.073 | [9] 0.044

CHST2 (UniProt Q9Y4C5)
inactive: [1] 0.186 | [2] 0.004 | [3] -0.236 | [4] -0.03 | [5] -0.079 | [7] 0.053 | [8] 0.165 | [9] 0.074

COA6 isoform 2 (UniProt Q5JTJ3)
inactive: [1] 0.026 | [2] -0.001 | [3] -0.07 | [4] -0.155 | [6] 0.082 | [8] 0.159 | [9] 0 | [10] 0.035

CLASP2 isoform 3 (UniProt O75122)
active: [6] -0.314
inactive: [1] -0.035 | [2] -0.201 | [3] 0.044 | [4] -0.029 | [8] 0.074 | [9] -0.007 | [10] -0.054

CHPF (UniProt Q8IZ52)
inactive: [1] -0.067 | [2] 0.157 | [3] -0.114 | [4] -0.017 | [5] 0.029 | [7] -0.07 | [8] 0.065 | [9] 0.257 | [10] -0.137

Quoted at random: two records from the list, in no set order.
CKB (UniProt P12277)
inactive: [1] 0.059 | [2] -0.174 | [3] 0.077 | [4] 0.053 | [6] -0.109 | [8] 0.021 | [9] -0.009 | [10] -0.022

CLCN2 (UniProt P51788)
inactive: [1] 0.012 | [2] 0.009 | [3] 0.018 | [4] -0.039 | [5] 0.058 | [6] 0.086 | [8] -0.102 | [9] 0.059 | [10] -0.086

Next part

CMTM6 (UniProt Q9NX76)
inactive: [1] 0.03 | [2] 0.119 | [3] 0.103 | [4] -0.099 | [5] 0.231 | [7] 0.017 | [8] -0.072 | [9] 0.108 | [10] 0.151

CNOT2 (UniProt Q9NZN8)
inactive: [1] 0.028 | [2] -0.019 | [3] 0.038 | [4] 0.046 | [6] -0.045 | [8] 0.077 | [9] -0.012 | [10] -0.02

CKS1B (UniProt P61024)
inactive: [1] -0.013 | [2] 0.063 | [3] 0.06 | [4] -0.051 | [6] 0 | [8] -0.093 | [9] -0.026 | [10] 0.224

CMTM3 (UniProt Q96MX0)
inactive: [1] 0.063 | [2] -0.007 | [3] -0.002 | [4] -0.133 | [6] 0.132 | [8] -0.102 | [9] -0.065

CHTOP isoform 3 (UniProt Q9Y3Y2)
inactive: [1] -0.43 | [2] -0.256 | [3] -0.211 | [4] 0.215 | [5] 0.137 | [7] 0.067 | [8] -0.038 | [9] 0.059

COCH (UniProt O43405)
inactive: [1] -0.051 | [2] -0.05 | [3] -0.033 | [4] -0.016 | [6] 0.059 | [8] -0.053 | [9] 0.052 | [10] -0.042

CNTN4 (UniProt Q8IWV2)
inactive: [1] -0.03 | [2] 0.064 | [3] 0.148 | [4] -0.099 | [6] 0.144 | [8] -0.087 | [9] -0.095 | [10] -0.046

CLPP (UniProt Q16740)
inactive: [1] 0.05 | [3] 0.058 | [4] -0.025 | [6] 0.008 | [8] 0.017 | [9] 0.003 | [10] 0.105
active: [2] 0.348

CLCN3 isoform 2 (UniProt P51790)
inactive: [1] -0.008 | [2] -0.074 | [3] 0.09 | [4] -0.142 | [6] 0.02 | [8] -0.011 | [9] 0.009 | [10] -0.25

CNDP2 (UniProt Q96KP4)
inactive: [1] 0.03 | [2] -0.061 | [3] 0.102 | [4] -0.067 | [6] 0.072 | [8] 0.015 | [9] 0.018 | [10] -0.099

CNN2 (UniProt Q99439)
inactive: [1] -0.003 | [2] -0.058 | [3] 0.058 | [4] -0.005 | [6] -0.088 | [8] 0.012 | [9] 0.007 | [10] -0.059

CIT isoform 4 (UniProt O14578)
inactive: [1] -0.023 | [2] -0.077 | [3] -0.013 | [4] 0.08 | [6] -0.001 | [8] -0.033 | [9] 0.026 | [10] 0.072
